Measured values as given in PubChem BioAssay AID1487 (National Center for Advancing Translational Sciences (NCATS), 2009).
The list shows a part of the results. Shown are side measurements of this screen, not its main read-out; they come without a call. The list favours compounds with an active or inconclusive main result. Words in brackets tell the shape of the fitted curve; partial curves, single points and poor fits give uncertain potencies.

Test: qHTS Assay for Modulators of Lamin A Splicing
Conditions: HeLa LMNA splicing GFP/RFP minigene ratio, 48 h
Outline: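 S3 HeLa stable clones carrying a lamin A-EGFP splicing minigene plus DsRed2 were seeded at 600 cells/well in Opti-MEM with 2% FBS, pin-dosed and incubated 48 h at 37°C. Acumen cytometry (488 nm) gave the GFP/RFP total-intensity ratio.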

[1] = measured here: GFP splicing reporter channel
[2] = measured here: RFP viability control channel

Compound | AC50 [1] | AC50 [2]
N#CC1=C(N)NC(SCc2ccccc2)=C(C#N)C12CCCC2 | 0.0251 µM [rising, full curve, poor fit] | 25.1 µM [rising, partial curve, poor fit]
CCn1c([N+](=O)[O-])nc2c1c(=O)[nH]c(=O)n2C | – | 35.5 µM [falling, single point]
Cc1nn(Cc2ccc(Cl)cc2Cl)c(C)c1NC(=O)c1nc2n(n1)C(C(F)F)CC(C)N2 (centres undefined) | – | 5.62 µM [rising, single point]
CCc1c(C)[nH]c2c1C(=O)C(CN1CCOCC1)CC2 (centres undefined) | 5.62 µM [falling, partial curve, poor fit] | 6.31 µM [falling, single point]
O=C(COc1ccc(Br)cc1)N1CCN(c2ccc([N+](=O)[O-])c(N3CCCCC3)c2)CC1 | – | 25.1 µM [rising, partial curve, poor fit]
CCc1cccc(CC)c1NC(=O)CN1C2CCCC1CC(NC(=O)Nc1cccc(OC)c1)C2 (centres undefined) | 0.708 µM [falling, partial curve, poor fit] | –
O=C1N/C(=C/c2ccc(N3CCOCC3)o2)C(=O)N1c1ccccc1 | 35.5 µM [falling, single point] | –
COc1ccc(NC(=O)CSc2nnc(Cn3c(=O)sc4ccccc43)n2C)c(OC)c1 | – | 35.5 µM [rising, single point]
COc1ccc(OCCOC(=O)Nc2ccccc2)cc1 | – | 14.1 µM [rising, single point]
O=C(CSCSCC(=O)Nc1ccc2c(c1)OCO2)Nc1ccc2c(c1)OCO2 | – | 10 µM [rising, single point]
Cc1ccc(Cn2ccnc2SCC(=O)Nc2nnc(C)s2)cc1 | – | 1.78 µM [rising, partial curve]
O=C1NN(c2ccccc2)C(=O)/C1=C/c1ccc(Sc2cccc3ccccc23)o1 | – | 25.1 µM [rising, partial curve]
COc1ccc(N2C(=O)CN(Cc3ccc(OC)c(OC)c3)C2=S)cc1 | 0.0708 µM [rising, full curve, poor fit] | –
C/C(=N\NC(=O)CNC(=O)C(c1ccccc1)c1ccccc1)c1ccc(C)cc1 | – | 0.794 µM [rising, full curve, poor fit]
CCc1ccccc1NC(=O)CN1C(=O)CCSc2ccc(S(=O)(=O)N3CCCC3)cc21 | 0.00316 µM [falling, full curve, poor fit] | –
O=C(c1sc2cc(F)ccc2c1Cl)N1CCN(c2ccccc2)CC1 | 31.6 µM [rising, single point] | 35.5 µM [rising, single point]

Single records, from the list above.
O=C(c1sc2cc(F)ccc2c1Cl)N1CCN(c2ccccc2)CC1 is entered as AC50 [1]: 31.6 µM [rising, single point]; AC50 [2]: 35.5 µM [rising, single point]
CCn1c([N+](=O)[O-])nc2c1c(=O)[nH]c(=O)n2C is entered as AC50 [2]: 35.5 µM [falling, single point]
